From the supplement of paper PMC12819154, “High-throughput peptide-centric local stability assay extends protein–ligand identification to membrane proteins, tissues and bacteria” (Nature Structural & Molecular Biology, 2025)
This is one part of the list. Most entries show no effect beyond the scatter of the controls.

Amino acid sequences for entries named in this document (tags omitted). A change or cut given only in a name is not applied to a line headed by its entry.
UniProt Q96HB5: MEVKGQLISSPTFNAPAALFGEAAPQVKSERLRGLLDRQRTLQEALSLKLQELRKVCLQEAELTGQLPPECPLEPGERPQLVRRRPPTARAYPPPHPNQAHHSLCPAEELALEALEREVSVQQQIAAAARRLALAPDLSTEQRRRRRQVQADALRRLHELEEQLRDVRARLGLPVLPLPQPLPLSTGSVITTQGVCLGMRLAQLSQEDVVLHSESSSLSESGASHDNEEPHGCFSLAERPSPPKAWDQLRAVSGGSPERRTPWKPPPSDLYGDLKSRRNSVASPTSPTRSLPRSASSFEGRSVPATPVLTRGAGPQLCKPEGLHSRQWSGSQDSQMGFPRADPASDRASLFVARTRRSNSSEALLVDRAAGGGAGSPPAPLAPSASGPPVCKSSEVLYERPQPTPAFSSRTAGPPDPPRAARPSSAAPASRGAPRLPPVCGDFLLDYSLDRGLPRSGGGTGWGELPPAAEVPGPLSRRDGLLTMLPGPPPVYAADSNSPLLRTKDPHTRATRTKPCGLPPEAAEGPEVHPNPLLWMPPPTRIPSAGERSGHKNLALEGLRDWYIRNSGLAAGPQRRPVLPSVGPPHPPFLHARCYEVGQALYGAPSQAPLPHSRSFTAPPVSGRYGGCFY
UniProt Q96MG7: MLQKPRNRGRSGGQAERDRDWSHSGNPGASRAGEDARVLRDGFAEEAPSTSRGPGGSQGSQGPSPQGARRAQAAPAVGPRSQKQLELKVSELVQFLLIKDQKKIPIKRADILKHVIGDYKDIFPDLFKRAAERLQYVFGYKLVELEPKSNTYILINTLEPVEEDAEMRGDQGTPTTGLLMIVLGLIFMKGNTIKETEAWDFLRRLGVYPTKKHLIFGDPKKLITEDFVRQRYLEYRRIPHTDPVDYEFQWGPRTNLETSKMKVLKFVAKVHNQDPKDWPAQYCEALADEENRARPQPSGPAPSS
UniProt Q96MW1: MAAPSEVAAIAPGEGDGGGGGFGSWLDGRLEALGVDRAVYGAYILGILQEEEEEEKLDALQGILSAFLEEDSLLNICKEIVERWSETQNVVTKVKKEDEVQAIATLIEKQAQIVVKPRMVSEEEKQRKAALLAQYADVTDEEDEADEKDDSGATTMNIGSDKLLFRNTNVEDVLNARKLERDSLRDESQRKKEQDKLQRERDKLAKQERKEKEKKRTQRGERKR
UniProt Q99081: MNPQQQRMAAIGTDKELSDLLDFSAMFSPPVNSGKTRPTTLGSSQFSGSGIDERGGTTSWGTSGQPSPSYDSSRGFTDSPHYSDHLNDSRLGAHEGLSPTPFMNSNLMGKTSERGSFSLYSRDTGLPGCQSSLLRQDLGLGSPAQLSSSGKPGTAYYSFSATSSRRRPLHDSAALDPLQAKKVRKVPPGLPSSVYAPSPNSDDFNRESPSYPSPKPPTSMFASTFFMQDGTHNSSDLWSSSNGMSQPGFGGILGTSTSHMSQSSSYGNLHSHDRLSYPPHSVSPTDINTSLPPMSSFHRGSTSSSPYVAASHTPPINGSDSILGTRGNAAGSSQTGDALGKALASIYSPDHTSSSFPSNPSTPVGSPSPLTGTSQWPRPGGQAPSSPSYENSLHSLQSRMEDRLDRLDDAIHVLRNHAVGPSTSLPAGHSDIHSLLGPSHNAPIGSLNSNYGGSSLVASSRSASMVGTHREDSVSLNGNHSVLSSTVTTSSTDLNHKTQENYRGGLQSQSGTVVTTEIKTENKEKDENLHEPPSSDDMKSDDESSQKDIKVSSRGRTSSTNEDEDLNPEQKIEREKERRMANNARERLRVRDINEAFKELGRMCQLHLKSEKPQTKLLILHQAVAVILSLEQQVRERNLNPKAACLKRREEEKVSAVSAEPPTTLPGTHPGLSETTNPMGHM
UniProt Q96LZ2: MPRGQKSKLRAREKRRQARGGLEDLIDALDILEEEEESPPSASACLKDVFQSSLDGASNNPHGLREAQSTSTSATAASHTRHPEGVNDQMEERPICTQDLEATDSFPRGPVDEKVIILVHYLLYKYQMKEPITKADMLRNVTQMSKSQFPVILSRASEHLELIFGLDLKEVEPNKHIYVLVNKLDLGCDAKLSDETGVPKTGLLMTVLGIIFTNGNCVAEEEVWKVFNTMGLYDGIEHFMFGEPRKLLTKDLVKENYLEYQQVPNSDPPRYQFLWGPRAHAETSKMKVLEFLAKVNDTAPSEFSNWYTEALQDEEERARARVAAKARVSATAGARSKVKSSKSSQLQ
UniProt Q96HW7, whole entry: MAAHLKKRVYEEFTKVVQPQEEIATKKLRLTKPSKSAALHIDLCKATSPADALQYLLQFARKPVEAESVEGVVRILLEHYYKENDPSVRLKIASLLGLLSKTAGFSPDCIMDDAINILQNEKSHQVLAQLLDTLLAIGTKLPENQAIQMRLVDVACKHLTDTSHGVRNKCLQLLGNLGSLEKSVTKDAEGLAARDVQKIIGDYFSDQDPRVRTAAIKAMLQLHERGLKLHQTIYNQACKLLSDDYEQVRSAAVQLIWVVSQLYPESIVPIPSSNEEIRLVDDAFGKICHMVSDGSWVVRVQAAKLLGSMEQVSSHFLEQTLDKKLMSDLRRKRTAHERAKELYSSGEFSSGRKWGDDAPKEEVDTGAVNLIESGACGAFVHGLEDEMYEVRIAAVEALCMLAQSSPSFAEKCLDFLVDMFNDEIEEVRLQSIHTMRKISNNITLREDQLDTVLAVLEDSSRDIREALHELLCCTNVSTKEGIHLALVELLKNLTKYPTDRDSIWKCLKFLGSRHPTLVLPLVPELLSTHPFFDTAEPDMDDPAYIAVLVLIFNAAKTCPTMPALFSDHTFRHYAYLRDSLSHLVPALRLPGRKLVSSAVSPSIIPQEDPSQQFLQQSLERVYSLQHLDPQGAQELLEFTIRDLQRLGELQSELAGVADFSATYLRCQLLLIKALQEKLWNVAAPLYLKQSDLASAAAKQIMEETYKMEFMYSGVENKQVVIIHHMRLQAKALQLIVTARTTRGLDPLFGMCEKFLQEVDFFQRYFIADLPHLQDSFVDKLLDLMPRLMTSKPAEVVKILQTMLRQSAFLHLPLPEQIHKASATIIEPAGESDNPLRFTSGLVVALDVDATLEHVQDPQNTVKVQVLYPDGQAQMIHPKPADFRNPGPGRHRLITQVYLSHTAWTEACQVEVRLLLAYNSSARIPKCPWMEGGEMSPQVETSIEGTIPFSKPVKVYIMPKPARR
UniProt Q96MH2: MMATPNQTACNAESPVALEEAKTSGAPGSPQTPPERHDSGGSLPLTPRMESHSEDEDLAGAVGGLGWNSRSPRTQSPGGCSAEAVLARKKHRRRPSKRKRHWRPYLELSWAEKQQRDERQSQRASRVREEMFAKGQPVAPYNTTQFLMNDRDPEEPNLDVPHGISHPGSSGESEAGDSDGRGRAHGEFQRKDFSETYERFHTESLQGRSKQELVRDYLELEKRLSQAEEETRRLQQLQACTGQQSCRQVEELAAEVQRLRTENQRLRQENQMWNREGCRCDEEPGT
UniProt Q96H22, whole entry: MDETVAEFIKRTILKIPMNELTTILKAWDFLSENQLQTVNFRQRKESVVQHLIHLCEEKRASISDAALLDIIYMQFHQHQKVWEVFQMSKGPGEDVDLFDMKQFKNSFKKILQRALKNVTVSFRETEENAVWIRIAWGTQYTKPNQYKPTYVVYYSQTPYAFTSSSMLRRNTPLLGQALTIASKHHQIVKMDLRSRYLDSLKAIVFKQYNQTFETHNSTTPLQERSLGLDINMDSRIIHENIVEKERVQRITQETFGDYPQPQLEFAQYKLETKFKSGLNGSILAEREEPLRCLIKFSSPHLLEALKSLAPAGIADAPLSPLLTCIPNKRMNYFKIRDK
UniProt Q96IK1: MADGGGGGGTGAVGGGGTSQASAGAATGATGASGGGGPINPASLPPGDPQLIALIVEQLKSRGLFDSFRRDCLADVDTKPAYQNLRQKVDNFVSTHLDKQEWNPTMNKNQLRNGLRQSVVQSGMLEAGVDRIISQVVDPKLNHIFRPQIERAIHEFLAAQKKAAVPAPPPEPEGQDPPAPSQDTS
UniProt Q99460, whole entry: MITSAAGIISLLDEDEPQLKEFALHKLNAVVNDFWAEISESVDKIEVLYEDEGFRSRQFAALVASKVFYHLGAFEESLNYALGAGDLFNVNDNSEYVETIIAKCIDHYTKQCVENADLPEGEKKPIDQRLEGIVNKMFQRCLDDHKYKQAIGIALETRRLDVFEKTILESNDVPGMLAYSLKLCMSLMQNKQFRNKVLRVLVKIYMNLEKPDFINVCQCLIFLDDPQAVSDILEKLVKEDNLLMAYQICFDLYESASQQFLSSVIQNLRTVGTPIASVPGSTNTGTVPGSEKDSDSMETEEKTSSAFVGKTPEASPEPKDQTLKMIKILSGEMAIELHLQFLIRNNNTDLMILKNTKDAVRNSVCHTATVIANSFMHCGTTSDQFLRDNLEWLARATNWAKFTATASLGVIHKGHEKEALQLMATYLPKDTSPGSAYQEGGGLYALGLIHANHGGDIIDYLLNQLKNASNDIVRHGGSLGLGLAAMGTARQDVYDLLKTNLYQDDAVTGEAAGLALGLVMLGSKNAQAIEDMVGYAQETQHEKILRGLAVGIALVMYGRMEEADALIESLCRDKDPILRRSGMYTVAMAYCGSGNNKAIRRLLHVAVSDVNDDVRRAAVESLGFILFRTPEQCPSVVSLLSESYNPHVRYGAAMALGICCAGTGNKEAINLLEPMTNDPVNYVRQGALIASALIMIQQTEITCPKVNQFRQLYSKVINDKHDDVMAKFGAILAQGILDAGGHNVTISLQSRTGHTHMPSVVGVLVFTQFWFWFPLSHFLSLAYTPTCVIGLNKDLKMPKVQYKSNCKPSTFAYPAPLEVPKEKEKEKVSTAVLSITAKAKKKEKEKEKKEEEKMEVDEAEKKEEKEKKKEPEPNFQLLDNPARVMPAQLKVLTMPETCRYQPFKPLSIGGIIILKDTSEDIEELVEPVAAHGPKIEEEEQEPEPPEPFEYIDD
UniProt Q96HQ0: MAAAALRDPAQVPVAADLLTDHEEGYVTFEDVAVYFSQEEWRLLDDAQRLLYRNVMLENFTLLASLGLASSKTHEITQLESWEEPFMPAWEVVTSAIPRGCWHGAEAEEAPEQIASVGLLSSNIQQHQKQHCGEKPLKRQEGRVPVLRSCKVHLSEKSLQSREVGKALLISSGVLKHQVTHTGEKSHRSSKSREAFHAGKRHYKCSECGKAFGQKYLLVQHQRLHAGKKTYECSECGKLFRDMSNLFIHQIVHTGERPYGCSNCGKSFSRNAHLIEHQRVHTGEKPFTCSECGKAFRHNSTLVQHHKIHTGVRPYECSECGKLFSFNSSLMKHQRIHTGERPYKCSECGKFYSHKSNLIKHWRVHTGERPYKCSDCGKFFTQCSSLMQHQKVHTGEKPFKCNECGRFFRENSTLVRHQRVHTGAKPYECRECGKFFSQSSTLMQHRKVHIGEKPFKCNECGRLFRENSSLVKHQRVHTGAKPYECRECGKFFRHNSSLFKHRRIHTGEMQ
UniProt Q96S99: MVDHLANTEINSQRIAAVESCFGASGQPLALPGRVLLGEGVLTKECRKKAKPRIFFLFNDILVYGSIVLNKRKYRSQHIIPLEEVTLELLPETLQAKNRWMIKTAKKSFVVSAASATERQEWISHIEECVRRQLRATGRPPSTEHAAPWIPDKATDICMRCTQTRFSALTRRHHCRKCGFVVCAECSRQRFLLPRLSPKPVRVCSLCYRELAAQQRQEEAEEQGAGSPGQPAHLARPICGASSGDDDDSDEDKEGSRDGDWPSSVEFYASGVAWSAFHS
UniProt Q96MD2: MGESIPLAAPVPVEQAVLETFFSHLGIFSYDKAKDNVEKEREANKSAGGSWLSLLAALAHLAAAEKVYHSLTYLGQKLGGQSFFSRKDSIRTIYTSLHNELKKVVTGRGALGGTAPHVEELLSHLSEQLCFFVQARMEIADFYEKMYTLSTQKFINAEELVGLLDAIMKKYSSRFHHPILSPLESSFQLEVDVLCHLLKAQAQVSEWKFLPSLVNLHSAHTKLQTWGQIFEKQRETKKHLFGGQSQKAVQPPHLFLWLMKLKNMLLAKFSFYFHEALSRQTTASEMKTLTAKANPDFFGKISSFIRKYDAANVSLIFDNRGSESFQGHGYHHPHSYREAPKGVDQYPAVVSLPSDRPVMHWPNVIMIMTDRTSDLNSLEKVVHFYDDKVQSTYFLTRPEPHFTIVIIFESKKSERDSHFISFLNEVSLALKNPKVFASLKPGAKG
UniProt Q96GU1: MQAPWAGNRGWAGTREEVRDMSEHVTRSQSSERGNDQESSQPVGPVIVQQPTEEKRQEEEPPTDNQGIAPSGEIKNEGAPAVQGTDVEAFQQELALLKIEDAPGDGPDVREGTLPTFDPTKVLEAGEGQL
UniProt Q96P16: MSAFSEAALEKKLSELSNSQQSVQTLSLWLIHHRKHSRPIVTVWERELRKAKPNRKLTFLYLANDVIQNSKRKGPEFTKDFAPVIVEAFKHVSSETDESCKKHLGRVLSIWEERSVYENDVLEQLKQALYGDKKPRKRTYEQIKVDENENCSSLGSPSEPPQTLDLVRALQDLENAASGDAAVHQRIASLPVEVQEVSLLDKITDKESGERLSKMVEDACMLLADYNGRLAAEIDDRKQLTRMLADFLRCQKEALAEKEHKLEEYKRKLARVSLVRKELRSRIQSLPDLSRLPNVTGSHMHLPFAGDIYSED

These targets were tested with CN[C@@H]1C[C@H]2O[C@@](C)([C@@H]1OC)n1c3ccccc3c3c4c(c5c6ccccc6n2c5c31)C(=O)NC4 [staurosporine] (assay: log2 fold change of tryptic peptide abundance, ligand vs vehicle (limited proteolysis) (log2 ratio); higher = more trypsin-susceptible (destabilized)). Details: ligand concentration: 20 uM; sample: K562 cleared lysate; digestion: 4 min, 22 C (HT-PELSA RT4min, Orbitrap Astral).

| Target | log2 fold change |
| --- | --- |
| THOC3 (peptide sequence: VHSVAWSCDGRR, peptide start residue: 58) (UniProt Q96J01) | -0.28 |
| UniProt Q96Q05 (peptide sequence: SPFIYSPIIAHNR, peptide start residue: 569) | -0.075 |
| CLCC1 (peptide sequence: EHPTVVPSHK, peptide start residue: 454) (UniProt Q96S66) | 0.453 |
| ZNF385A (peptide sequence: RPVISCNICQIR, peptide start residue: 71) (UniProt Q96PM9) | -0.369 |
| UniProt Q96HB5 (peptide sequence: RPVLPSVGPPHPPFLHAR, peptide start residue: 576) | 0.11 |
| UniProt Q96MG7 (peptide sequence: VSELVQFLLIKDQK, peptide start residue: 89) | 0.379 |
| UniProt Q96GY0 (peptide sequence: KHEEFIATIR, peptide start residue: 83) | -0.51 |
| CNOT6L (peptide sequence: YNECLMNFSCNGK, peptide start residue: 440) (UniProt Q96LI5) | -0.177 |
| CCDC43 (peptide sequence: MVSEEEKQR, peptide start residue: 119) (UniProt Q96MW1) | 0.172 |
| UIMC1 (peptide sequence: IIMADKEVGNKEDAEK, peptide start residue: 475) (UniProt Q96RL1) | -0.181 |
| TCF12 (peptide sequence: RRPLHDSAALDPLQAK, peptide start residue: 166) (UniProt Q99081) | -0.0949 |
| MAGEB10 (peptide sequence: VIILVHYLLYK, peptide start residue: 115) (UniProt Q96LZ2) | 0.259 |
| NEURL4 (peptide sequence: TALRPHATDDFNHGVVLSSR, peptide start residue: 539) (UniProt Q96JN8) | -0.438 |
| INTS4 (peptide sequence: LLLAYNSSAR, peptide start residue: 913) (UniProt Q96HW7) | 0.152 |
| UniProt Q96MY1 (peptide sequence: IQAIIESCSR, peptide start residue: 216) | -0.167 |
| UniProt Q96SF7 (peptide sequence: TPSLISGIPTPPSLPGNSK, peptide start residue: 443) | 0.315 |
| HEXIM2 (peptide sequence: DYLELEKR, peptide start residue: 216) (UniProt Q96MH2) | -0.613 |
| C8orf76 (peptide sequence: SGPPASYCAK, peptide start residue: 25) (UniProt Q96K31) | 0.0204 |
| UniProt Q96H22 (peptide sequence: ASISDAALLDIIYMQFHQHQK, peptide start residue: 61) | 0.311 |

Retrieved one by one from the list above:

| Target | log2 fold change |
| --- | --- |
| MAGEB10 (peptide sequence: VIILVHYLLYK, peptide start residue: 115) (UniProt Q96LZ2) | 0.259 |
| UniProt Q96MG7 (peptide sequence: VSELVQFLLIKDQK, peptide start residue: 89) | 0.379 |

More records:

| Target | log2 fold change |
| --- | --- |
| XPO6 (peptide sequence: TTSEELACPR, peptide start residue: 152) (UniProt Q96QU8) | -0.205 |
| BOD1 (peptide sequence: QKVDNFVSTHLDKQEWNPTMNK, peptide start residue: 87) (UniProt Q96IK1) | 0.604 |
| DCLRE1C (peptide sequence: HKVPYPETFHPEVFSMTAVSEK, peptide start residue: 403) (UniProt Q96SD1) | 0.4 |
| RANBP9 (peptide sequence: HDHEMEDCDTEMEVDSSQLR, peptide start residue: 587) (UniProt Q96S59) | -0.25 |
| PDLIM5 (peptide sequence: GPFLVALGK, peptide start residue: 429) (UniProt Q96HC4) | 0.139 |
| PSMD1 (peptide sequence: KKEPEPNFQLLDNPAR, peptide start residue: 868) (UniProt Q99460) | 0.48 |
| SPG11 (peptide sequence: CSIPIHALEAGIENR, peptide start residue: 526) (UniProt Q96JI7) | 0.385 |
| EAF1 (peptide sequence: APTKPPVGPK, peptide start residue: 147) (UniProt Q96JC9) | 0.0318 |
| FYTTD1 (peptide sequence: TAVPSFLTKR, peptide start residue: 253) (UniProt Q96QD9) | -0.193 |
| UniProt Q96HQ0 (peptide sequence: ALLISSGVLK, peptide start residue: 167) | -0.526 |
| RBM17 (peptide sequence: RPDPDSDEDEDYER, peptide start residue: 150) (UniProt Q96I25) | 0.587 |
| PLEKHF1 (peptide sequence: IAAVESCFGASGQPLALPGR, peptide start residue: 15) (UniProt Q96S99) | 0.152 |
| UniProt Q96MD2 (peptide sequence: VYHSLTYLGQK, peptide start residue: 67) | 0.18 |
| DNAJC1 (peptide sequence: ALPHLIQDAGQFYAK, peptide start residue: 237) (UniProt Q96KC8) | 0.662 |
| UniProt Q96H40 (peptide sequence: SSHLTTHK, peptide start residue: 273) | 0.146 |
| PAGE5 (peptide sequence: VLEAGEGQL, peptide start residue: 122) (UniProt Q96GU1) | -0.113 |
| SMARCD1 (peptide sequence: AEFYFQPWAQEAVCR, peptide start residue: 479) (UniProt Q96GM5) | -0.439 |
| RPRD1A (peptide sequence: MVEDACMLLADYNGR, peptide start residue: 215) (UniProt Q96P16) | -0.253 |
